# Measurements from PubChem BioAssay AID2551 (National Center for Advancing Translational Sciences (NCATS), 2010).
# Protein sequences, listed by entry. Tags and fused reporters are not part of them. Lines headed by an entry give the natural chain unless they say otherwise; changes in a name come on top.
# UniProt P51450: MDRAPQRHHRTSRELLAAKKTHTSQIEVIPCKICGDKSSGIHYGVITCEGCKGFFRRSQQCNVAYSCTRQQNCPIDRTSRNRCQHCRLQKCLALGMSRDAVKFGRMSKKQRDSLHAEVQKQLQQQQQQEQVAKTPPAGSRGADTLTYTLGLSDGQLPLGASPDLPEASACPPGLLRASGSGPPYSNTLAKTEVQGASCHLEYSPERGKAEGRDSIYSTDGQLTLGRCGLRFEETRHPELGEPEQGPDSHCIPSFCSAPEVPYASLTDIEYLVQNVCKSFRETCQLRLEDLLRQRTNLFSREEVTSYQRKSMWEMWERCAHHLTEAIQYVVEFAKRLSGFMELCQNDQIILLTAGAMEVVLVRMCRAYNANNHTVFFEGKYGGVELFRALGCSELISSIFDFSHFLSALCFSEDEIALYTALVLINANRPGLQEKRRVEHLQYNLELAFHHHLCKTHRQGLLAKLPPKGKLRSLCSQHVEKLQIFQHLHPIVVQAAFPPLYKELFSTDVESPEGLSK
# In all, about 310,000 compounds went through this assay and about 17,000 (5.5%) were called active. Inconclusive means that the source gave no clear call. Such entries were picked first, then a sample of the others. Calls come from the whole dose curve; as a rule, active = well fitted inhibition curve with a large enough effect; inconclusive = small, poorly fitted or top-dose-only effect, or effect the other way; inactive = no such curve, though single readings can be large or run the other way. Potencies beside an inconclusive call are fits to weak or partial responses and may not hold up.
# Target: Nuclear receptor ROR-gamma (Mus musculus) (UniProt P51450)
# Experiment: qHTS for inhibitors of ROR gamma transcriptional activity; note: nearly all actives have a fitted effect of over 60% in size
# Conditions: Drosophila S2 Gal4-RORgamma UAS-luciferase reporter, 20 h; series mostly up to 53.6 µM
# Summary of the method: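 Read-out: Photinus luciferase luminescence; inhibitors lower reporter signal. Insect Schneider cells with Gal4-ROR gamma fusion under metallothionein promoter, UAS reporter; 700 uM final copper sulfate induction, 20 hr, ambient temperature.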
# Potency is the fitted concentration of half-maximal effect.
row,Compound,Potency
1,CCc1nc2ccccc2c(C(=O)OCC(=O)Nc2cccc(S(=O)(=O)NC3=NCCCCC3)c2)c1C,"inconclusive: 15.8 µM [activator, single point]"
2,Cc1n[nH]c(=S)n1/N=C/c1c(O)ccc2ccccc12,"inconclusive: 28.2 µM [inhibitor, single point]"
3,O=C(c1ccco1)N1N=C2CCCCCC2C1(O)C(F)(F)F (stereo unspecified),active: 0.631 µM
4,COCCSc1ccccc1C(=O)Nc1ccc(Br)cc1,inactive
5,CCNC(=S)N1CCN(S(=O)(=O)/C=C/c2ccccc2)CC1,"inconclusive: 5.62 µM [inhibitor, single point]"
6,COc1ccc(-c2csc(N(C)C(=O)c3ccco3)n2)cc1,inactive
7,COc1cccc(C(=O)Nc2cccc(C(=O)NCC(C)C)c2)c1,"inconclusive: 0.1 µM [activator, single point]"
8,CCOC(=O)C1CCN(C(=O)CNC(=O)c2nn(-c3ccc(OC)cc3OC)c(=O)c3ccccc23)CC1,inactive
9,Cc1ccc(-c2nnc(Nc3ccc(CC(N)=O)cc3)c3ccccc23)cc1S(=O)(=O)NCC1CCCO1 (stereo unspecified),inactive
10,CCn1c(COc2ccc(OC)cc2)nc2ccccc21,"inconclusive: 14.1 µM [inhibitor, single point]"
11,CCOc1ccc2cc(/C=C/C(=O)c3ccco3)c(Cl)nc2c1,"inconclusive: 1.26 µM [activator, partial curve, poor fit]"
12,CCN(CC)c1ccc2c(C)c(-c3ccc(N)cc3)c(=O)oc2c1,"inconclusive: 10 µM [activator, single point]"
13,Nc1ccc(N2CCN(c3ccc(F)cc3)CC2)cc1,inactive
14,CC(C)(C)C1=CC(=O)C(N2CCOCC2)=CC1=O,active: 10 µM
15,CC(=O)c1cccc(CN2CCN(C(C)C)C(CCO)C2)c1 (stereo unspecified),inactive
16,CCOC(=O)c1sc(NC(=O)c2ccncc2)c(C#N)c1C,"inconclusive: 17.8 µM [activator, partial curve]"
17,CC(NC(=S)Nc1ccc(F)cc1)c1ccccc1 (stereo unspecified),active: 7.08 µM
18,Cc1nc(SCc2ccc([N+](=O)[O-])cc2)n[nH]1,inactive
19,CN(C)S(=O)(=O)N1CCC(Oc2cccc(C(=O)NC3CCOC3)c2)CC1 (stereo unspecified),"inconclusive: 5.01 µM [activator, partial curve, poor fit]"
20,CCOC(=O)c1sc2ccc(S(=O)(=O)N3CC(C)CC(C)C3)cc2c1N (stereo unspecified),"inconclusive: 15.8 µM [activator, partial curve]"
21,Cc1ncc([N+](=O)[O-])n1CCOC(=O)Nc1ccc(Cl)c(Cl)c1,inactive
22,Cc1c(C(=O)Oc2cccc3cccnc23)cccc1[N+](=O)[O-],active: 2.82 µM
23,CSc1nc(N)c(C(=O)NC2CCCCC2)s1,"inconclusive: 20 µM [activator, partial curve, poor fit]"

row,Compound,Potency
1,CNC(=S)NC1CC2CCCC(C1)N2Cc1ccco1 (stereo unspecified),"inconclusive: 0.501 µM [activator, full curve, poor fit]"
2,CN(C)c1ccc(-c2ccc3ncnc(N(C)C)c3c2)cc1,"inconclusive: 35.5 µM [activator, single point]"
3,COc1ccc(CN2CCN(C(=O)C3CC(=O)N(C4CCCCCC4)C3)CC2)c(OC)c1OC (stereo unspecified),"inconclusive: 14.1 µM [activator, partial curve]"
4,CCN(Cc1ccncc1)C(=O)c1ccc2c(c1)S(=O)(=O)c1ccccc1C2=O,inactive
5,COc1ccc(-n2c(C(C)n3nc(C)c([N+](=O)[O-])c3C)n[nH]c2=S)cc1 (stereo unspecified),inactive
6,Cc1[nH]c2ccccc2c1SCCNC(=O)c1ccc(S(=O)(=O)N2CCCC2)cc1,"inconclusive: 25.1 µM [activator, single point]"
7,CC(=O)c1cccc(NC(=S)NCc2ccccc2)c1,"inconclusive: 17.8 µM [inhibitor, single point]"
8,CC(=O)c1ccc(OCc2cc(C(=O)N3CCCCCCC3)no2)cc1,"inconclusive: 11.2 µM [activator, partial curve]"
9,COc1ccc(C2C(C#N)=C(N)Oc3n[nH]c(C)c32)cc1CSc1ccccn1 (stereo unspecified),"inconclusive: 15.8 µM [inhibitor, single point]"
10,COc1ccc(-c2nnc(NC(=O)c3cc(C)on3)s2)cc1,"inconclusive: 35.5 µM [inhibitor, single point]"
11,CC1=NN(C(=O)c2ccccc2Br)C(O)(c2ccc(Cl)cc2)C1 (stereo unspecified),active: 3.98 µM
12,CCc1ccc(C(=O)NN(C(=O)c2ccc(CC)cc2)C(C)(C)C)cc1,"inconclusive: 12.6 µM [inhibitor, single point]"
13,Cc1ccc(NC(=S)NNC(=O)CSc2nc3ccccc3c(=O)n2-c2ccc(C)cc2)cc1,"inconclusive: 17.8 µM [inhibitor, partial curve, poor fit]"
14,O=C(NNc1ccccn1)C(=O)NNS(=O)(=O)c1ccc(Cl)cc1,"inconclusive: 11.2 µM [inhibitor, partial curve]"
15,Cc1cc(/C=N\NC(=O)c2cccs2)c(C)n1-c1ccc2ncccc2c1,"inconclusive: 35.5 µM [inhibitor, single point]"
16,CCOC(=O)c1c(NC(=O)CSc2nnc(C)s2)sc2c1CCC(CC)C2 (stereo unspecified),"inconclusive: 14.1 µM [activator, single point]"
17,COc1ccccc1-n1cnc2cc(NCc3cccs3)ccc21,"inconclusive: 20 µM [inhibitor, partial curve]"
18,COc1ccc(Br)cc1C(=O)NC(=S)Nc1ccc(Cl)c(C(=O)O)c1,"inconclusive: 25.1 µM [activator, single point]"
19,Cc1nc2ccccc2n1Cc1ccccc1Br,"inconclusive: 22.4 µM [inhibitor, single point]"
20,C/C(=C\C(=O)C(F)(F)F)Nc1ccc(C(F)(F)F)cc1,inactive
21,Cc1cc(NC(=O)c2cnn3c(C(F)(F)F)cc(-c4ccc(Br)cc4)nc23)no1,inactive
22,Fc1ccc(C2=CC(c3ccco3)n3nnnc3N2)cc1 (stereo unspecified),"inconclusive: 5.01 µM [activator, partial curve]"
23,Cc1ccc(S(=O)(=O)N2CC(O)CC2C(=O)Nc2ccc3c(c2)CCC3)cc1 (stereo unspecified),"inconclusive: 12.6 µM [activator, single point]"

# Molecules above that contain a CF3 group, in the order listed:
row,Compound,Potency
3,O=C(c1ccco1)N1N=C2CCCCCC2C1(O)C(F)(F)F (stereo unspecified),active: 0.631 µM
20,C/C(=C\C(=O)C(F)(F)F)Nc1ccc(C(F)(F)F)cc1,inactive
21,Cc1cc(NC(=O)c2cnn3c(C(F)(F)F)cc(-c4ccc(Br)cc4)nc23)no1,inactive
